Results of single-concentration screens

Sequences of proteins named here, by UniProt entry; tags and fusion partners are left off. Residues count along the entry.
UniProt I6X8D2, whole entry: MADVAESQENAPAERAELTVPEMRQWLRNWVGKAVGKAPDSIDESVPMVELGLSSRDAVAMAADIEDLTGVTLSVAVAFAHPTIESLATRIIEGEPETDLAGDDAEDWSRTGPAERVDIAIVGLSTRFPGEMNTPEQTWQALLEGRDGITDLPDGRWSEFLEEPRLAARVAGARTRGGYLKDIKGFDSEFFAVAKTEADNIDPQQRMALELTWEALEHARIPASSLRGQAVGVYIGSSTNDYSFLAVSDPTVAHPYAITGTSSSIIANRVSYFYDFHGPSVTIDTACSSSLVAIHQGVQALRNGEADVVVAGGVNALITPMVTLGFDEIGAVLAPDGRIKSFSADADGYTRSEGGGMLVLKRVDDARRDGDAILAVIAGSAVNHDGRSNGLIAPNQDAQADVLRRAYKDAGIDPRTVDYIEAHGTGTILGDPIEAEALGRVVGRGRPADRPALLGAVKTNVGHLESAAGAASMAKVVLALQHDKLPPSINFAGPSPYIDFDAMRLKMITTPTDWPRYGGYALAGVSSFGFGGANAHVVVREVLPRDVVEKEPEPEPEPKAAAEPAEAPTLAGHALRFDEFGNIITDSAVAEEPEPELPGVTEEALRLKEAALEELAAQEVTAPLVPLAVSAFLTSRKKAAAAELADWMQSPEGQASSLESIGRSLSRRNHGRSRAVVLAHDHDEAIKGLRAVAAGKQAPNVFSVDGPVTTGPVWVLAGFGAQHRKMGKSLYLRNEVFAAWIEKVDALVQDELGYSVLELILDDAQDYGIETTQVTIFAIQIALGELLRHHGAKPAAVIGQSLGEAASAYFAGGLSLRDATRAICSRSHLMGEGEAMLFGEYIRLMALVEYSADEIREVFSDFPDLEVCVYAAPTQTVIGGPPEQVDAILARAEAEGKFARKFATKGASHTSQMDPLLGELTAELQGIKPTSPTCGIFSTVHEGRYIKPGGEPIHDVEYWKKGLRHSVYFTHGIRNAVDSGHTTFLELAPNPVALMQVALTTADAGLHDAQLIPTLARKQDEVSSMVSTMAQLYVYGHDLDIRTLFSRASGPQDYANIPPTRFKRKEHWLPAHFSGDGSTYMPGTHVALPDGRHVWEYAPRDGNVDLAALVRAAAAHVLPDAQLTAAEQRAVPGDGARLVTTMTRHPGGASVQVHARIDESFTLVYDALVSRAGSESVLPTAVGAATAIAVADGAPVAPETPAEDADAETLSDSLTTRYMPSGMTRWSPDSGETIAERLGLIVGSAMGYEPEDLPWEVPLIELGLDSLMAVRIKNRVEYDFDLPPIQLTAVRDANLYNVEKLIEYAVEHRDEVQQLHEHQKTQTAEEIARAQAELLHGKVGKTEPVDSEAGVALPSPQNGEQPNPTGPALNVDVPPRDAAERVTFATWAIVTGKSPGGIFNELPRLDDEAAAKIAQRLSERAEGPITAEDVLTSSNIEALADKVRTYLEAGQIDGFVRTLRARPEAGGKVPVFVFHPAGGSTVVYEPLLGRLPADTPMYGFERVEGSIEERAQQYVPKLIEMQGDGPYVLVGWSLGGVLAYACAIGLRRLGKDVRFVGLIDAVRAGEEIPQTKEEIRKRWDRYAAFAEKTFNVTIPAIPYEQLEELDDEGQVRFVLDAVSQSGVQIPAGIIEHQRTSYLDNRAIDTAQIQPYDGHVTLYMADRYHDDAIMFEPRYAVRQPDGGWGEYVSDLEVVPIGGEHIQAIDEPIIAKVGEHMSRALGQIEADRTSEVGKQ
UniProt A4I591, 1-473: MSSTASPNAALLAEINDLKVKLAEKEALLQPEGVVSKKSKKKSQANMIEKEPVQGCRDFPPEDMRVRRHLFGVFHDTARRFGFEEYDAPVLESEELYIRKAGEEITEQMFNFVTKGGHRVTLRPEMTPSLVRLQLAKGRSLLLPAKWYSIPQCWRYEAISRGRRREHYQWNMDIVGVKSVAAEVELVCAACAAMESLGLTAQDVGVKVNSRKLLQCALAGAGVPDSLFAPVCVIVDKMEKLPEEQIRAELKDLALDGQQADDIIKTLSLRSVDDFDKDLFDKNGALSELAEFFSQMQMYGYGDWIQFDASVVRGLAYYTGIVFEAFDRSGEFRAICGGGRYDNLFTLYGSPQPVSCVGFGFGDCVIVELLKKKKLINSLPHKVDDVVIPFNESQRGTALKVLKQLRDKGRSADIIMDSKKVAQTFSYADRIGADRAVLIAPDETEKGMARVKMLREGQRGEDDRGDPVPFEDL

The values are deposited in ChEMBL (CHEMBL3988442, “University of Dundee, Small-Polar-MMV Screening Library” (2021)).

Values are the deposited “Percent Effect”, in %. How 0% and 100% were set is not recorded. Most values in the screen are low, and negative values occur. Compounds were drawn at random from those tested, without regard to their results. Two or more numbers in one place are separate tests of the same structure; such repeats can differ widely. A dash means the value is not listed here; it may have been measured.

Leishmania in macrophages: 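Cell assay of Leishmania donovani living inside macrophages; the read-out is not stated. Concentration: 30 µM. Higher reads as stronger inhibition (inferred: compounds with an IC50 in retests scored well above the rest). Of about 69,000 compounds tested this way, about 1,000 (1.5%) reached 50% or more in at least one test.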
Pks13 thioesterase: 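Polyketide synthase Pks13, Mycobacterium tuberculosis (UniProt I6X8D2). Enzyme assay of the thioesterase domain of polyketide synthase 13; the read-out is not stated. Tested at 30 µM. Higher reads as stronger inhibition (inferred from which compounds were picked for retests). Size under these conditions: about 67,000 compounds, about 300 of them at 50% or above in at least one test.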
LiHisRS: 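Histidine-tRNA ligase, Leishmania infantum (UniProt A4I591). Enzyme assay of histidyl-tRNA synthetase; the read-out is not stated. Compounds at 30 µM. Direction is inferred from retests: higher values go with stronger inhibition. The assay is labelled LdHisRS but filed under L. infantum. Size under these conditions: about 69,000 compounds, about 410 of them at 50% or above in at least one test.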

SMILES,Leishmania in macrophages,Pks13 thioesterase,LiHisRS
CN1CC2(CCN(CCOCCO)CC2)CC(c2ccccc2)C1=O (configuration not stated),9.084,9.532,9.677
CN1CCN(S(=O)(=O)c2cncc(F)c2)c2ccccc2C1,-2.367,-,2.632
Cc1csc(CNc2ccc(-c3nc(C4CC4)no3)cn2)n1,3.387,-13.02,9.091
CC(C)c1nc(C2CCCN(C(=O)CS(=O)(=O)C(C)C)C2)no1 (configuration not stated),11.93,-31.92,3.896
CCC1CN(c2cnn(C)c(=O)c2Br)CCO1 (configuration not stated),-30.18,8.962,8.571
CCc1ccsc1C(=O)N1CCN(CC(C)(C)O)CC1,28.93,-440.3,13.04
[H][C@@]12COC[C@]1(C(=O)NCc1ccccn1)CN(c1cc(OC)ncn1)C2,-45.2 and 0.8427,-,-
Cc1cccc(N(C)Cc2nc3c(cnn3C)c(=O)[nH]2)c1C,-16.22,21.48,7.937
CN1CCN(C(=O)c2cn3ccsc3n2)[C@H]2CS(=O)(=O)C[C@H]21,-,-8.046,12.24
CCc1cc(CN2CCCCC2c2ccc(F)cc2)on1 (configuration not stated),4.35,-1.462,12.39
CN(Cc1ccon1)c1nc(-c2ccccn2)nc2c1CCNCC2,-7.407,-38.87,17.81
COc1ccc(CNC[C@H]2Cn3ccnc3CO2)cn1,19.74,-33.23,14.86
O=C(CNc1ccc(OC2CCOC2)cc1)NCc1ccco1 (configuration not stated),-71.86,-,10.84
CN(C)C(=O)COCC1CN(CC2CCOCC2)Cc2ncn(C)c21 (configuration not stated),-14.21,-66.57,1.389
O=C(O)C(F)(F)F.[H][C@@]12CCN(Cc3nccs3)[C@]1([H])CC[C@H](C(=O)N1CCOCC1)O2,4.651,-,-
CS(=O)(=O)N[C@@H]1CCO[C@]2(CCN(CC3CCOCC3)C2)C1.O=C(O)C(F)(F)F,-3.522,-,-
O=C(NCc1cccnc1)C1CN(c2cnc3ccccc3n2)CCN1 (configuration not stated),-19.13,-27.85,17.02
COc1cccc(CCNCc2c(C)nn(C)c2N(C)C)c1,8.876,-8.585,7.2
CCN1CCCC(c2c(-c3ccccc3)ncn2CC(N)=O)C1 (configuration not stated),10.7,-32.62,0
Cc1ccc(NS(=O)(=O)c2cccc(C#N)c2)c(CN(C)C)c1,-0.3142,-21.37,16.44
O=C(Cn1nc2c(cc1=O)CCCC2)N[C@@H](C(=O)O)c1ccccc1,19.65,-26.79,3.883
CCOCc1ncn2c1CN(S(=O)(=O)c1ccc(C)cc1)CC2,-16.96,-11.71,9.589
Cc1ccsc1C(=O)N1CCCC(c2[nH]ncc2S(C)(=O)=O)C1 (configuration not stated),-3.702 and 1.874,-16.31,7.246
CS(=O)(=O)N1C[C@@H]2COC[C@@H](CC(=O)N3CCCO3)[C@@H]2C1,-,-33.56,7.895
CC[C@@]1(O)CCN(C(=O)CN(C)Cc2ccc(F)cc2)C[C@H]1O,-34.78,-1.869,-2.5
NC(=O)N1CC2(CCNCC2)c2cc(Cl)ccc21,-,-10.2,2.439
c1cnc(C2CCCN(Cc3ccsc3)C2)cn1 (configuration not stated),17.71,0.9575,10.14
Cn1cc(-c2cnc(N3CCOCC3)nc2)cc1C(=O)NCCC#N,-,-0.1734,24
COCc1nc(CNC2CSCCSC2)no1,-11.33,2.143,25
CC(=O)N[C@@H]1CN(C2CCN(c3ccccc3F)CC2)C[C@H]1C(C)C,-2.556,-12.61,13.16
O=C(O)C(F)(F)F.[H][C@@]12CN(CC)C[C@]1([H])[C@H](OC)CCN2C(=O)Cc1ccsc1,13.95,-,-
CCc1ccc(C(=O)N2CCN(CC(O)c3ccccc3)CC2)o1 (configuration not stated),-29.79,-1.499,1.818
Cc1noc(C)c1-c1ccnc(C2CCN(C3CCOCC3)CC2)c1,7.991,5.515,11.72
N#CCCCN1CCCC1Cc1ccccc1 (configuration not stated),11.89,-34.04,12.82
Cc1noc([C@]23COC[C@H]2CN(C(=O)Cc2ccsc2)C3)n1,-,0.751,9.91
CCCn1nc(C)c(CNS(=O)(=O)NCc2ccccc2)c1C,42.67,-16.79,2.597
CC(C)c1nsc(N2CCC(OCCN3CCOCC3)CC2)n1,-9.917,3.275,1.205
COCC(O)CN(C)c1ccnc2cc(Br)ccc12 (configuration not stated),14.12,14.46,9.524
CCn1nc(C)c2nnn(CC(=O)Nc3ccccc3F)c(=O)c21,-51.43,-13.68,5.172
CNC(=O)c1cccc(CCNc2ccccn2)c1,4.061,-32.96,6.349
O=C(CC1CC1)N1CCC2(CCCN(CCOc3ccccc3)C2)C1 (configuration not stated),-,-15.22,19.27
CCn1cc2c(n1)CN(Cc1ccncc1)CC2COCC1CC1.O=C(O)C(F)(F)F.O=C(O)C(F)(F)F (configuration not stated),10.34,-,-
CC(C)NC(=O)CC(C)NC(=O)N(C)Cc1cc(Cl)cn1C (configuration not stated),2.625,-28.39,20
CCC(=O)N1Cc2nccn2CC(CN(C)Cc2cccnc2)C1.O=C(O)C(F)(F)F.O=C(O)C(F)(F)F (configuration not stated),14.09,-,-
COc1ccccc1COCC(O)CN(C)c1ccc(C)cc1C (configuration not stated),-10.69,-,6.897
CN(C)C(=O)c1cc2ncc(C(=O)NC3CC3)cc2n1C,7.754,23.78,15.84
COc1ccc(CNC2CCN(CCc3ccncc3)CC2)cc1O,9.899,-8.839,19.23
COc1ncc(C(=O)N2CCC3(CC2)C(=O)Nc2ccccc23)cn1,-1.704,13.65,14.47
Cc1ccc(C(=O)N2CCOC(c3nc(-c4ncccn4)no3)C2)cc1 (configuration not stated),17.79,-4.775,19.79
CCn1ncc2c1C(COC)N(C(=O)c1cscn1)CC2 (configuration not stated),-,-45.08,-2.727
O=C1OCCN1CCS(=O)(=O)c1cccc(Br)c1,-18.68,-29.63,7.5
Cc1csc(C(Cc2ccsc2)NC(=O)Cn2cccnc2=O)n1 (configuration not stated),-5.095,-2.869,7.292
CC(C)CCc1n[nH]c(C(=O)O)c1I,7.335,-5.296,18.68
CCC1CN(CC(=O)NCc2ccco2)CCO1 (configuration not stated),-20.05,-7.681,6.452
COCCC1(CO)CCCN(Cc2ccncc2)C1 (configuration not stated),12.3,-20.92,25
Cc1cnn(CCNCC(O)COc2ccc3ccccc3c2)c1 (configuration not stated),33.22,11.38,15.25
Cc1cc(NC(=O)C(C)Nc2cccc(COCc3ccco3)c2)on1 (configuration not stated),14.5,30.11,15.22
Cc1ccccc1-n1cnc(Cl)c1CO,0.1894,-13.71,-3.191
COc1cccc(S(=O)(=O)N2CCn3cnc(COCC4CC4)c3C2)c1,28.06,-4.492,15.09
c1cnn(C2CN(Cc3nc(-c4ccsc4)no3)C2)c1,31.96,-2.48,18.4
Cc1cc(C)c2[nH]c(CN3CCCC(N4CCOCC4)C3)cc(=O)c2c1 (configuration not stated),13.56,-3.327,22.22
c1ccc(N2CCC3(COCCN(Cc4cccs4)C3)C2)nc1 (configuration not stated),-,-20.87,19.27
CCOC(=O)N1CCCC2(CCN(Cc3ccccc3C#N)C2)C1 (configuration not stated),29.39,-6.831,9.836
Cc1ccc(C2CSCCN2C(=O)c2cc(C(N)=O)cs2)o1 (configuration not stated),6.325,-20.87,19.35
Cn1c(=O)[nH]c(=O)c2c1nc1n2CC(c2ccc(Cl)cc2)O1 (configuration not stated),-8.539,37.96,10.34
[H][C@]12CC[C@]([H])(CN(S(C)(=O)=O)C1)N(C/C=C/c1ccc(F)cc1)C2,13.03,-,-